From publication PMC10356771
Results are given in words; binding and its absence hold for the method and conditions named. In cells and extracts the contact can be indirect. Some entries that bind do so weakly or less than the wild type. For some assays here: Tags and fused reporters may be left off the sequences shown. Blank lines part the entries; values can stand above or below the substance they belong to.

Chains of the proteins cited; added tags and fusions are not shown.
UniProt Q62296: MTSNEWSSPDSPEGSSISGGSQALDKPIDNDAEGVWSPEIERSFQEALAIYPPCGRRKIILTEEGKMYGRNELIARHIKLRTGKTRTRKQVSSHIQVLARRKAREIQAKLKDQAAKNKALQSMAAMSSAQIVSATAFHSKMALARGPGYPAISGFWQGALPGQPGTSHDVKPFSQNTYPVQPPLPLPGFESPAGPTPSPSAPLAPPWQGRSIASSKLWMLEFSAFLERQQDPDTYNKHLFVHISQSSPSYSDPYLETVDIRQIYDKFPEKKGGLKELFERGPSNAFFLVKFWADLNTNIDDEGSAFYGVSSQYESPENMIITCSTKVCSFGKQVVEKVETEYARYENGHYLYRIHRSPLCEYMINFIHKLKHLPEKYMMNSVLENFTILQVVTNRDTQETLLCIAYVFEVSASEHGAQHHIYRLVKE
UniProt Q9Z0Z7: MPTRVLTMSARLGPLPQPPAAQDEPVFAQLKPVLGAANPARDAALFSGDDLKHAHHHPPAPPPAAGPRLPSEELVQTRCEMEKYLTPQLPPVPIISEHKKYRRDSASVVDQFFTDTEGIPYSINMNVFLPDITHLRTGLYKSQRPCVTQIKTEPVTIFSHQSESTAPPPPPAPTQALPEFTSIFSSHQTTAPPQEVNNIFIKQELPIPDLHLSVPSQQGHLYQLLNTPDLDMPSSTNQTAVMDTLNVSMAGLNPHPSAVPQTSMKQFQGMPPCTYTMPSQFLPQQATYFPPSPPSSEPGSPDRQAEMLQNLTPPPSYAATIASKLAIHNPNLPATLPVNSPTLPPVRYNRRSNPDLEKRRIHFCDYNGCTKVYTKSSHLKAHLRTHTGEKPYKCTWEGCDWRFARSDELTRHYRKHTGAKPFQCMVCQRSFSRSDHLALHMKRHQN

Key:
Tead4-Flag = Tead4-Flag (UniProt Q62296); experiment: co-IP; HEK293T cells expressing tagged proteins; Flag M2 antibody on Dynabeads Protein G; lysis buffer 50 mM Tris-HCl pH 7.5, 150 mM NaCl, 1% NP-40, 0.1% sodium deoxycholate; 3 h at 4 °C; eluted with 3x Flag peptide; Western blot
Myogenin-Flag = target: T1, Myogenin-Flag (UniProt P12979); experiment: as above
T1 sequence: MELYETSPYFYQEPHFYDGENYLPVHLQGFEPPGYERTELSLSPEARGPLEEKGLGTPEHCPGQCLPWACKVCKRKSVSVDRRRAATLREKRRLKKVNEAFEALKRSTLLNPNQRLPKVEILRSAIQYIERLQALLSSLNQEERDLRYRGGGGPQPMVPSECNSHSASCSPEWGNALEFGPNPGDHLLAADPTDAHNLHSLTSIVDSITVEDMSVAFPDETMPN

[1] = target: T2, Myogenin (endogenous, C2C12) (mouse (endogenous in C2C12)) (UniProt P12979); experiment: co-IP; endogenous proteins in C2C12 cells; precipitating antibody not told in the text shown
T2 sequence: T1 sequence

[2] = target: Tead4 (endogenous, C2C12) (mouse (endogenous in C2C12)) (UniProt Q62296); experiment: as above

binding (Tead4-Flag): binds
binding (Myogenin-Flag): binds
Substance: Klf5-HA (from UniProt Q9Z0Z7 1-446)

binding (Myogenin-Flag): binds
Substance: Tead4-HA (from UniProt Q62296 1-427)

binding [1]: binds
Substance: Tead4 (endogenous, C2C12) (from UniProt Q62296 1-427)

binding [2]: binds
Substance: Klf5 (endogenous, C2C12) (from UniProt Q9Z0Z7 1-446)
